According to the supplement of paper PMC12823440, “Inhibitors supercharge kinase turnover through native proteolytic circuits” (Nature, 2025):
Where a name gives a salt, the structure may show the parent alone. The list shows a part of the results. The calls rarely recur for the same compound in another form.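 In K562 cells expressing nanoluciferase-fused kinases, luminescence was recorded at 4 h intervals between 2 and 18 h, normalized as percent of control with DMSO at 100% and a positive control at 0%. A significant (2 sigma) signal drop marks a time point as decreased. The authors' rule for a hit is not shown and takes in more than the number of time points.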

By UniProt entry, the sequences of proteins in these tests, tags left out. Where a name states a change or a piece, a line headed by the entry shows the natural chain unless it says otherwise.
UniProt P48730: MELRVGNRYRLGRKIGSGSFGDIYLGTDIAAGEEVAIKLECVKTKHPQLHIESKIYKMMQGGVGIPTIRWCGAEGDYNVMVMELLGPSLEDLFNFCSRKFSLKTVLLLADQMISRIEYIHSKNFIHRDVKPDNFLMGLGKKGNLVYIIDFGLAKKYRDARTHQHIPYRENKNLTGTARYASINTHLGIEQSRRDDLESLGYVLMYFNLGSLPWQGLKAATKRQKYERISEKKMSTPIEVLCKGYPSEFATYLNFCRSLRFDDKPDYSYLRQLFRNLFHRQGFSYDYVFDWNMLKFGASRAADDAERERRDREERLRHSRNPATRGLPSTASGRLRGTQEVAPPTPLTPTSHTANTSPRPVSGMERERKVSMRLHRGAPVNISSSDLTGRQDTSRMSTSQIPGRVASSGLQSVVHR
UniProt Q08345: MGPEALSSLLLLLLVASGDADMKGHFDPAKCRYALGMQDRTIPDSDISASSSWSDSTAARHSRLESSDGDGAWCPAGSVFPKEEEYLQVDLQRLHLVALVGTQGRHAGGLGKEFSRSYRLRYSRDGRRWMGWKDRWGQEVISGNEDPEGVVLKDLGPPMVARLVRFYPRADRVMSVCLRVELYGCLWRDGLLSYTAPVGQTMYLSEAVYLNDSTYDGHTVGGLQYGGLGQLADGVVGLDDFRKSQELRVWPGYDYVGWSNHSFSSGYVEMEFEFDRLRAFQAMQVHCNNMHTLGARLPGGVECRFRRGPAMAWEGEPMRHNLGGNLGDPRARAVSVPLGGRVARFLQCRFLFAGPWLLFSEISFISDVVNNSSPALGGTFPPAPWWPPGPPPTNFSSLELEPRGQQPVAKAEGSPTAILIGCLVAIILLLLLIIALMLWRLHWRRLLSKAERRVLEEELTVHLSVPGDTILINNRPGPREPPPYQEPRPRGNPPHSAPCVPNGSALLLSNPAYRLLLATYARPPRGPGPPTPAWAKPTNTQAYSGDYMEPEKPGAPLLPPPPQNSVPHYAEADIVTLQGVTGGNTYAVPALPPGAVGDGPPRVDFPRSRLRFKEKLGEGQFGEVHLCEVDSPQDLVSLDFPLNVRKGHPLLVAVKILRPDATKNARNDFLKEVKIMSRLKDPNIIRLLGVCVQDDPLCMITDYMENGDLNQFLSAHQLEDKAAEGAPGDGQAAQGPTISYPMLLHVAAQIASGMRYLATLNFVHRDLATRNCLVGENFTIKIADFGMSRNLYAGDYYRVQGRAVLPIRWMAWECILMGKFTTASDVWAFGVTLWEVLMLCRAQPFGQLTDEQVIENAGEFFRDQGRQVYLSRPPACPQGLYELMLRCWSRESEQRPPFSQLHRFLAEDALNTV

What follows are compounds tested against CSNK1D (UniProt P48730) (assay: number of time points (of 5) at which kinase-Nluc abundance scored as decreased, DMSO-normalised (count); higher = more persistent destabilization). Details: K562; 2-18 h.
In the case of `O=c1nc(N2CCOCC2)oc2c(-c3cccc4c3sc3ccccc34)cccc12` (10 µM), the “number of time points” value is reported as 0. For `O=C(Nc1cccc(-c2nncn2C2CC2)c1)c1cc(-n2cnc(C3CC3)c2)ccn1` (10 µM), the “number of time points” value was 0. `CSc1ccc(CN2CCCC(Nc3ccc4[nH]ncc4c3)C2)cc1` (stereo unspecified) [Rho-Kinase-IN-1] (10 µM) was tested, and the “number of time points” value was 0. `Oc1ccccc1C(=S)N1CCCC1` (10 µM) was tested, and the “number of time points” value was 0. For `COC(=O)N[C@@H](C)CNc1nccc(-c2cn(C(C)C)nc2-c2cc(Cl)cc(NS(C)(=O)=O)c2F)n1` [Encorafenib] (10 µM), the “number of time points” value was 0. In the case of `C=CS(=O)(=O)c1ccc(Nc2nc(OCC3CCCCC3)c3[nH]cnc3n2)cc1` (2.5 µM), the “number of time points” value is reported as 0. In the case of `O=c1[nH]ccc2cc(OC3CCNCC3)ccc12` (10 µM), the “number of time points” value is reported as 0.

Each compound was assayed against DDR1 (UniProt Q08345) in the same assay as above. Details: K562; 2-18 h.
With `O=C1NC(=O)C(c2cn(-c3ccccc3)nc2-c2ccc(F)cc2)N1` (stereo unspecified) (10 µM) the “number of time points” value was 0. With `O=[N+]([O-])c1ccc(Sc2cccc[n+]2[O-])c2nonc12` (2.5 µM) the “number of time points” value was 0. In the case of `COc1nc(-c2ccnc(NC(=O)C3CC3)c2)sc1C(N)=O` [GSK-3β inhibitor 2] (10 µM), the “number of time points” value is reported as 0. For `CCN1/C(=C/C(C)=O)Sc2ccc(OC)cc21` (10 µM), the “number of time points” value was 0. In the case of `Nc1cccc(S(=O)(=O)N2CCCN(S(=O)(=O)c3ccc4c(c3)OCCO4)CC2)c1` (10 µM), the “number of time points” value is reported as 0. With `Nc1ncc(-c2ccc(C(=O)N3CCNCC3)cc2)nc1-c1ccc(C(F)(F)F)cc1` (10 µM) the “number of time points” value was 0. In the case of `CC[C@H](Nc1ncnc2[nH]cnc12)c1oc2ccccc2c(=O)c1-c1cccc(F)c1` [Tenalisib] (10 µM), the “number of time points” value is reported as 0. For `CC(C)(O)[C@@H]1CC[C@](C)([C@H]2[C@@H](O)C[C@@]3(C)[C@@H]4C[C@H](O[C@@H]5O[C@H](CO)[C@@H](O)[C@H](O)[C@H]5O)[C@H]5C(C)(C)[C@@H](O[C@@H]6OC[C@@H](O)[C@H](O)[C@H]6O[C@@H]6O[C@H](CO)[C@@H](O)[C@H](O)[C@H]6O)CC[C@@]56C[C@@]46CC[C@]23C)O1` [Astragaloside VI] (10 µM), the “number of time points” value was 0. `CC(=O)Nc1nc2ccc(-c3cnc(C)c(NC(=O)OC4CCCCC4)c3)cc2s1` (10 µM) was tested, and the “number of time points” value was 1. For `COc1ccccc1/C=C1\C(=O)Nc2ccccc21` (10 µM), the “number of time points” value was 0. For `CC1(N)CCN(c2cnc3c(-c4cccc(Cl)c4Cl)[nH]nc3n2)CC1` (2.5 µM), the “number of time points” value was 0. With `CC(C)C[C@H](NC(=O)[C@H](CCCCN)NC(=O)[C@H](CO)NC(=O)[C@@H](N)CC(C)C)C(N)=O` [LSKL, Inhibitor of Thrombospondin (TSP-1) (TFA)] (10 µM) the “number of time points” value was 0. In the case of `CN1CC[C@H](c2c(O)cc(O)c3c(=O)cc(-c4ccc(C(F)(F)F)cc4Cl)oc23)[C@H]1CO` [(2S,3R)-Voruciclib (hydrochloride)] (2.5 µM), the “number of time points” value is reported as 0. In the case of `C[C@H]1[C@H](OC(=O)CCC(=O)O)O[C@@H]2O[C@@]3(C)CC[C@H]4[C@H](C)CC[C@@H]1[C@@]24OO3` [Artesunate] (2.5 µM), the “number of time points” value is reported as 1. With `c1ccc(-c2nn3c(c2-c2ccnc4cc(OCCN5CCOCC5)ccc24)CCC3)nc1` (10 µM) the “number of time points” value was 0. In the case of `COc1cc(N2CCC(N(C)C)CC2)ccc1Nc1ncc(Cl)c(Nc2ccccc2P(C)(C)=O)n1` (2.5 µM), the “number of time points” value is reported as 3. For `Cc1ccc(-c2ncn(-c3ccc(Nc4nccc(-c5cccc(N6CCOCC6)c5)n4)cc3)n2)cn1` (10 µM), the “number of time points” value was 0. With `CC[C@@H]1[C@H](F)C(=O)N[C@@H]1COc1nccc2cc(C(N)=O)c(OC)cc12` (10 µM) the “number of time points” value was 0. In the case of `O=C1NC(=O)/C(=C/c2ccc(-c3ccc(F)cc3O)o2)S1` (10 µM), the “number of time points” value is reported as 0. For `Cc1cc(Nc2cc(CN3CCOCC3)c3nc(C)c(Cc4ccc(Cl)cc4F)n3n2)n[nH]1` [Gandotinib] (2.5 µM), the “number of time points” value was 0. `CN(C)C(=O)c1ccc(S(=O)(=O)c2ccc(NC(=O)[C@@](C)(O)C(F)(F)F)c(Cl)c2)cc1` (10 µM) was tested, and the “number of time points” value was 0. In the case of `CCc1cccc(CC)c1NC(=O)c1nn(C)c2c1CCc1cnc(Nc3ccc(C(=O)NC4CCN(C)CC4)cc3OC(F)(F)F)nc1-2` (2 µM), the “number of time points” value is reported as 0. In the case of `O=C(Nc1ccc(Cl)cc1)C1CCCN(C(=O)c2cccc(-c3ccco3)c2)C1` (stereo unspecified) (2.5 µM), the “number of time points” value is reported as 0. In the case of `CN(C)Cc1cccc(N=C(c2ccccc2)c2c(O)[nH]c3cc(C(=O)N(C)C)ccc23)c1` (10 µM), the “number of time points” value is reported as 0. `OCCN(CCO)c1ccc(C(c2ccc(Cl)cc2)c2ccc(N(CCO)CCO)cc2)cc1` (10 µM) was tested, and the “number of time points” value was 1. With `CCOc1ccccc1C=C1C(=O)Nc2ccccc21` (10 µM) the “number of time points” value was 1. In the case of `COc1ncc(Nc2ncc([C@@H](C)N3CCN(S(C)(=O)=O)CC3)cc2-c2nc(C)nc(N)n2)cc1F` (10 µM), the “number of time points” value is reported as 0. In the case of `O=C(CO)N1CCC(c2n[nH]c(-c3ccc(Cl)cc3)c2-c2ccncn2)CC1` (10 µM), the “number of time points” value is reported as 0. `Cn1ncc(Cl)c1-c1cc(C(=O)N[C@H](CN)Cc2ccc(F)c(F)c2)sc1Cl` (10 µM) was tested, and the “number of time points” value was 1. `O=c1ccc2ccc(O)c(O)c2o1` [Daphnetin] (10 µM) was tested, and the “number of time points” value was 0. In the case of `O=C(Nc1ccc(Cl)c(Cl)c1)Nc1ccc2nnsc2c1` (10 µM), the “number of time points” value is reported as 0. For `O=C(O)c1cc(O)c2c(c1)[C@@H]([C@H]1c3cc(C(=O)O)cc(O)c3C(=O)c3c(O[C@@H]4O[C@H](CO)[C@@H](O)[C@H](O)[C@H]4O)cccc31)c1cccc(O[C@@H]3O[C@H](CO)[C@@H](O)[C@H](O)[C@H]3O)c1C2=O` [Sennoside B] (2.5 µM), the “number of time points” value was 0. With `O=c1nc(N2CCOCC2)oc2c(-c3cccc4c3sc3ccccc34)cccc12` (10 µM) the “number of time points” value was 0. In the case of `O=C(Nc1cccc(-c2nncn2C2CC2)c1)c1cc(-n2cnc(C3CC3)c2)ccn1` (10 µM), the “number of time points” value is reported as 0. For `CSc1ccc(CN2CCCC(Nc3ccc4[nH]ncc4c3)C2)cc1` (stereo unspecified) [Rho-Kinase-IN-1] (10 µM), the “number of time points” value was 0. `Oc1ccccc1C(=S)N1CCCC1` (10 µM) was tested, and the “number of time points” value was 0. In the case of `COC(=O)N[C@@H](C)CNc1nccc(-c2cn(C(C)C)nc2-c2cc(Cl)cc(NS(C)(=O)=O)c2F)n1` [Encorafenib] (10 µM), the “number of time points” value is reported as 0. In the case of `C=CS(=O)(=O)c1ccc(Nc2nc(OCC3CCCCC3)c3[nH]cnc3n2)cc1` (2.5 µM), the “number of time points” value is reported as 0. `O=c1[nH]ccc2cc(OC3CCNCC3)ccc12` (10 µM) was tested, and the “number of time points” value was 0.
